Source: PubChem BioAssay AID493014 (National Center for Advancing Translational Sciences (NCATS), 2011)
The other results are listed elsewhere or left out. These are further read-outs of the screen, such as a control signal, another cell line or another target. No call is given for them. Most of these compounds were active or inconclusive in the main read-out, so they are no random draw. Words in brackets tell the shape of the fitted curve; partial curves, single points and poor fits give uncertain potencies.

Experiment: qHTS Assay to Find Inhibitors of Chronic Active B-Cell Receptor Signaling
Conditions: ABC-DLBCL IkBa-CBG/CBR reporter, luminescence ratio (green luciferase fused to IkBa over red control in TMD8 lymphoma cells), 4 h
Summary of the method: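 Doxycycline induced both beetle luciferases in TMD8 lymphoma cells; IKK-driven degradation limits the IkappaBalpha-fused green signal, while red luminescence normalises for cell number and nonspecific effects. Compounds tested up to 46 uM, 4 hrs.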

[1] = measured here: IkBa-CBG green luminescence
[2] = measured here: CBR red luminescence, cell number

Compound | AC50 [1] | AC50 [2]
Cc1ccc(-c2nc3ccccc3c(=O)n2-c2ccncc2)cc1 | 16.4 µM [rising, partial curve, poor fit] | 
O=C(c1ccccc1F)c1cn(Cc2ccc(F)cc2)c2ccccc12 |  | 23.1 µM [rising, partial curve, poor fit]
O=c1c2ccccc2nc(-c2ccccc2)n1-c1ccccc1O |  | 22.4 µM [falling, single point]
COc1ccc(CCNC(C)CCc2ccc(OC)cc2)cc1 (stereo not drawn) |  | 3.26 µM [rising, single point]
CC(=O)Nc1ccc(C(=O)C(Cc2ccccc2)N(C)C)cc1 (stereo not drawn) |  | 17.8 µM [rising, partial curve, poor fit]
CCCCn1c(O)c(/C(C)=N/NC(=O)Nc2ccccc2)c(=O)[nH]c1=O |  | 35.5 µM [falling, single point]
Cn1cc(C(=O)OCC(=O)N2CCCCC2)c2ccccc21 |  | 2.06 µM [falling, full curve]
COc1ccc(-c2nc3ccccc3c(=O)o2)cc1 |  | 3.55 µM [falling, full curve]
COC(=O)C1=C(c2c(C)noc2C)C[C@@H]2CC[C@H]1N2C(=O)N1CCc2cc(OC)c(OC)cc2C1 |  | 2.91 µM [rising, single point]
CCCCCCN1CCN(c2ccc(Cl)cc2)CC1 |  | 31.6 µM [rising, single point]
Oc1ccc(Cl)c(Cl)c1Cl |  | 2.31 µM [rising, partial curve, poor fit]
COC(=O)C1=C(c2ccc(-c3ccccc3)c(F)c2)C[C@@H]2CC[C@H]1N2C(=O)NC(C)C |  | 11.6 µM [falling, partial curve, poor fit]
CC(=O)[C@@]1(O)CC[C@H]2[C@@H]3CC=C4C[C@@H](O)CC[C@]4(C)[C@H]3CC[C@@]21C |  | 0.92 µM [falling, partial curve, poor fit]
CCN1Cc2c(/C=C/c3ccccc3)nc3ccc(OC)cc3c2N(c2cccc(Cl)c2)C1 |  | 22.4 µM [falling, single point]
Cc1ccsc1C(=O)C1CCCN(Cc2cccc(OCCO)c2)C1 (stereo not drawn) |  | 14.1 µM [rising, partial curve]
Cn1c(O)c(/C=N/NC(=O)c2ccncc2)c(=O)[nH]c1=S |  | 12.6 µM [falling, partial curve]
Nc1nonc1C(=O)N/N=C/c1ccc([N+](=O)[O-])o1 |  | 35.5 µM [falling, single point]
CCOC(=O)c1[nH]c2ccc(OC)cc2c1C(SCC(=O)O)c1ccc(C(F)(F)F)cc1 (stereo not drawn) |  | 20 µM [falling, single point]
CC(=O)c1ccc2c(c1)C1C(Cl)C(Sc3ccccc3[N+](=O)[O-])CC1C(c1ccccc1)N2 (stereo not drawn) |  | 20.6 µM [falling, partial curve, poor fit]
CCn1c(N2CCN(CC(=O)c3c(C)n(C)c4ccccc34)CC2)nc2c1c(=O)[nH]c(=O)n2C |  | 1 µM [rising, partial curve, poor fit]

A different layout for part of the listing above:
CCCCn1c(O)c(/C(C)=N/NC(=O)Nc2ccccc2)c(=O)[nH]c1=O
  AC50 [2]: 35.5 µM [falling, single point]
Cn1cc(C(=O)OCC(=O)N2CCCCC2)c2ccccc21
  AC50 [2]: 2.06 µM [falling, full curve]
COc1ccc(-c2nc3ccccc3c(=O)o2)cc1
  AC50 [2]: 3.55 µM [falling, full curve]

Next records.

Compound | AC50 [1] | AC50 [2]
COP(=O)(OC)C(NC(=O)c1ccc(C)cc1)C(Cl)(Cl)Cl (stereo not drawn) |  | 15.8 µM [rising, single point]
[O-]c1ccccc1-[n+]1c(-c2ccccc2)cc(-c2ccccc2)cc1-c1ccccc1 |  | 23.1 µM [falling, single point]
Brc1ccc(-[n+]2c(-c3ccccc3)cc(-c3ccccc3)cc2-c2ccccc2)cc1 | 32.6 µM [rising, partial curve, poor fit] | 29.1 µM [falling, single point]
CC1=CC2/C=C(\C)CCC(O)C(O)/C=C/C(=O)C23C(=O)NC(CC(C)C)C3C1C (stereo not drawn) |  | 11.2 µM [falling, partial curve]
COCCN1C(=O)NC(=O)/C(=C\c2ccc(F)cc2)C1=O |  | 17.8 µM [rising, single point]
Cc1[nH][nH]c(=O)c1C(c1ccc(-c2cccc(Cl)c2)o1)c1c(C)[nH][nH]c1=O |  | 35.5 µM [falling, single point]
CCOc1cc2c(cc1OCC)-n1cccc1C(c1ccc(OC)c(O)c1)NC2 (stereo not drawn) |  | 11.2 µM [falling, single point]
O=C1/C(=C/c2ccc([N+](=O)[O-])cc2)N2CCC1CC2 |  | 7.31 µM [falling, partial curve, poor fit]
Cc1cc(C)nc(-n2c(C)nc3cc(Cl)ccc3c2=O)c1 |  | 5.8 µM [rising, single point]
CN(C)C1(CNC(=O)c2cc(S(=O)(=O)N3CCOCC3)c(Cl)cc2Cl)CCCCC1 |  | 0.731 µM [rising, partial curve, poor fit]
Cc1ccc(-n2c(O)c(C=NCCN3CCOCC3)c(=O)[nH]c2=O)cc1 |  | 25.9 µM [rising, partial curve, poor fit]
O=[N+]([O-])c1ccc(Cl)c([N+](=O)[O-])c1 |  | 20.6 µM [falling, partial curve]
CCOC(=O)[C@]1(C#N)[C@@H]2C=CC(C(C)=O)=CN2[C@@H](C(N)=O)[C@@H]1c1ccsc1 |  | 3.26 µM [rising, partial curve, poor fit]
O=C1c2ccccc2S(=O)(=O)N1CCS(=O)(=O)c1ccc(F)cc1 |  | 10 µM [falling, partial curve]
C=C1CC[C@@]2(O)[C@H]3Cc4ccc(O)c5c4[C@@]2(CCN3CC2CC2)[C@H]1O5 |  | 6.51 µM [falling, single point]
Cc1nc2ccccc2c(=O)n1-c1ccc(Br)cc1[N+](=O)[O-] |  | 5.01 µM [falling, single point]
COC(=O)C1=C(c2ccc(F)cc2OCc2ccccc2)C[C@@H]2CC[C@H]1N2C(=O)NCc1ccco1 |  | 13 µM [falling, partial curve, poor fit]
COc1cc(/C=N/NP(=S)(c2ccccc2)c2ccccc2)ccc1O |  | 25.9 µM [falling, single point]
O=C(Nc1ccc2ccccc2c1)c1ccc(Br)o1 |  | 11.2 µM [falling, partial curve, poor fit]
C[C@H]1CCC[C@@H](O)CCC/C=C/c2cc(O)cc(O)c2C(=O)O1 | 10 µM [falling, partial curve, poor fit] | 11.2 µM [falling, partial curve]

Compound | AC50 [1] | AC50 [2]
COCCOC(=O)C1=C(N)Oc2c(c(=O)oc3ccccc23)C1c1ccncc1 (stereo not drawn) |  | 1.46 µM [falling, full curve]
COC(=O)C1=C(c2ccc3ccccc3c2)C[C@@H]2CC[C@H]1N2C(=O)NCc1ccc(F)cc1 |  | 16.4 µM [falling, partial curve]
C=CC1CN2CCC1CC2[C@@H](OC(=O)c1ccc(OC)cc1)c1ccnc2ccccc12 (stereo partly drawn) |  | 17.8 µM [falling, partial curve, poor fit]
Cc1cc(C)n(-c2nc(NCCCN(C)C)c3c4c(sc3n2)COC(C)(C)C4)n1 |  | 17.8 µM [falling, partial curve, poor fit]
O=C(O)c1ccc(/C=C2\COc3ccccc3C2=O)cc1 |  | 22.4 µM [falling, single point]
Cc1cc(=O)oc2cc(OCC(=O)N3CCN(Cc4ccccc4)CC3)ccc12 |  | 29.1 µM [rising, single point]
C[C@]12CCC3C(CCC4=C/C(=N/OCC(=O)NC(CCC(=O)O)C(=O)O)CC[C@@]43C)C1CCC2O (stereo partly drawn) |  | 0.1 µM [rising, full curve, poor fit]
O=C1C2CCCN2C(c2ccc(Cl)c(Cl)c2)N1c1ccccn1 (stereo not drawn) |  | 20.6 µM [falling, partial curve, poor fit]
CN1CC=C2C(C#N)=C(N)C(C#N)(C#N)C(c3ccncc3)C2C1 (stereo not drawn) | 0.92 µM [rising, full curve, poor fit] | 0.58 µM [falling, full curve]
C#CCN1C(=O)C2(C(C#N)=C(N)OC(C)=C2C(=O)OCc2ccccc2)c2ccccc21 (stereo not drawn) |  | 20 µM [falling, partial curve, poor fit]
c1ccc(-c2[nH]c(-c3ccccc3)[n+](CC3CO3)c2-c2ccccc2)cc1 (stereo not drawn) |  | 18.4 µM [falling, single point]
CCOC(C(=O)OCC(O)CN(CC)CC)(c1ccccc1)c1ccccc1 (stereo not drawn) |  | 35.5 µM [falling, single point]
Cc1nc2cc(C(F)(F)F)ccc2n1C1CCN(Cc2nnnn2Cc2ccc3c(c2)OCO3)CC1 |  | 23.1 µM [falling, single point]
CSCCC(NC(=O)CCC(=O)OC1CC[C@H]2[C@@H]3CC[C@H]4CC(=O)CC[C@]4(C)[C@H]3CC[C@]12C)C(=O)O (stereo partly drawn) |  | 35.5 µM [falling, single point]
CCCCCCC(C)(C)c1ccc([C@@H]2C[C@H](O)CC[C@H]2CCCO)c(O)c1 |  | 29.1 µM [falling, single point]
CCc1ccc(CN2CCN(Cc3cc(Br)ccc3O)CC2)cc1 |  | 3.55 µM [falling, single point]
O=C(c1ccccc1)c1cc2ccccc2o1 |  | 2.24 µM [rising, partial curve, poor fit]
Clc1ccccc1Nc1ncnc(-n2cccc2)n1 |  | 12.6 µM [falling, partial curve, poor fit]
CC1CN(C)C(C)(C)CC1(O)c1ccccc1 (stereo not drawn) |  | 29.1 µM [falling, single point]
COc1cc(C=C2C(=O)NC(=O)NC2=O)cc(OC)c1OC |  | 25.1 µM [rising, partial curve, poor fit]
